# These are yes or no findings as the source states them, for the method shown. Binding seen in cells or lysates may run through a third protein. Here binding means that the protein was enriched with, or labelled near, the bait; the list need not be complete. Where a sequence is shown, tags or fusion partners need not be part of it.
# Sequences of proteins named here, by UniProt entry; tags and fusion partners are left off. A change or cut given only in a name is not applied to a line headed by its entry. Residues count along the entry.
# UniProt P31167, residues 71-381: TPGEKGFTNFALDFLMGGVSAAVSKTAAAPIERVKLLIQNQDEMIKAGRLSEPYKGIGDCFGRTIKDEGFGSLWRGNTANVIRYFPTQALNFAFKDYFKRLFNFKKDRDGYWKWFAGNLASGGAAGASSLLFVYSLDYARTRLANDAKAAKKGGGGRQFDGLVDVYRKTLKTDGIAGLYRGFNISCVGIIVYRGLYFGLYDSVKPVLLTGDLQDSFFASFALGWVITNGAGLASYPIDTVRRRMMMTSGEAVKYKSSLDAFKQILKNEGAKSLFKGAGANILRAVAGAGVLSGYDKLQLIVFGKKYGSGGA
# UniProt P21240, residues 55-600: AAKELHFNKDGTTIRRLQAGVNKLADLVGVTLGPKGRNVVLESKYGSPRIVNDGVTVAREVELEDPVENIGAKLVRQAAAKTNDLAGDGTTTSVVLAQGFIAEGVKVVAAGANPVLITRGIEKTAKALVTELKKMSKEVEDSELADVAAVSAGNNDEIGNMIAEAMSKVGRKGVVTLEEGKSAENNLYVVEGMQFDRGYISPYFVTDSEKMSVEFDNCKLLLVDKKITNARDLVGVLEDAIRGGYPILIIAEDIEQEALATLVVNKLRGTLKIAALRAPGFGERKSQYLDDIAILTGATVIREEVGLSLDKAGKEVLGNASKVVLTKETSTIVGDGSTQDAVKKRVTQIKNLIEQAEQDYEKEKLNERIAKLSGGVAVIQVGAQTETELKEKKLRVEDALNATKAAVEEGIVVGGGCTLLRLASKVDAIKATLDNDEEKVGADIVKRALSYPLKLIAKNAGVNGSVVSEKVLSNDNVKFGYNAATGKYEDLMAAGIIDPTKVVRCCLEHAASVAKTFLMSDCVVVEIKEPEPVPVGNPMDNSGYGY
# UniProt Q01667, residues 36-241: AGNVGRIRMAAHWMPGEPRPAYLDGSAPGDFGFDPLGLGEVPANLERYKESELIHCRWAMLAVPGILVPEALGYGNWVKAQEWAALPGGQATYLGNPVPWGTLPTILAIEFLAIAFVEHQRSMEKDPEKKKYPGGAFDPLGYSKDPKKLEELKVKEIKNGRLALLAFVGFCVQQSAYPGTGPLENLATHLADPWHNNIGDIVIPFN
# UniProt Q9S7N7, residues 61-160: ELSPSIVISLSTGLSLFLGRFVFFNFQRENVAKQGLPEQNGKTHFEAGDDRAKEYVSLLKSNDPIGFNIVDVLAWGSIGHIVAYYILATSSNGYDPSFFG
# UniProt P17745, residues 68-476: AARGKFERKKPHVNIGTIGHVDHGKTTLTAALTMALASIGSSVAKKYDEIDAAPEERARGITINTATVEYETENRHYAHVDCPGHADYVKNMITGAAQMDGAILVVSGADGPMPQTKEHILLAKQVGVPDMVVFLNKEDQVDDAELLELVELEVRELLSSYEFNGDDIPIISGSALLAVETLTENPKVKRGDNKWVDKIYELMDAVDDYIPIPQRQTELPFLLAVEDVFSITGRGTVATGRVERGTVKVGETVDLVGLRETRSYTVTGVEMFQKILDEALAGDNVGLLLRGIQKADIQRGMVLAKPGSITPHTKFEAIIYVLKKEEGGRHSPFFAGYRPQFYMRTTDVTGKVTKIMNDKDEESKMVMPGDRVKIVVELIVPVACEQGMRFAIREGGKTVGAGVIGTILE
# UniProt P29511: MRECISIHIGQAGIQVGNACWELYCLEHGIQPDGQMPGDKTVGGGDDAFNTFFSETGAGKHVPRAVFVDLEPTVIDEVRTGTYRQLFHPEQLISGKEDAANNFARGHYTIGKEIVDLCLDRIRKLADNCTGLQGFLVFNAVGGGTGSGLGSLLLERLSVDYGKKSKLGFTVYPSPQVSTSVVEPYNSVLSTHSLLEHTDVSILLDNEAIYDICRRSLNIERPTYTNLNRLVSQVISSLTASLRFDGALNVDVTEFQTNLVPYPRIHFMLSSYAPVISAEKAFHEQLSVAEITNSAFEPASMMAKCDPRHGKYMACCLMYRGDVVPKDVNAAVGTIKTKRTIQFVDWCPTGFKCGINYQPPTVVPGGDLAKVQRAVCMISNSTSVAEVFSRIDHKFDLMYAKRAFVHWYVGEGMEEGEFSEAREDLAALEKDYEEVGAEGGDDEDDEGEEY
# UniProt P56757: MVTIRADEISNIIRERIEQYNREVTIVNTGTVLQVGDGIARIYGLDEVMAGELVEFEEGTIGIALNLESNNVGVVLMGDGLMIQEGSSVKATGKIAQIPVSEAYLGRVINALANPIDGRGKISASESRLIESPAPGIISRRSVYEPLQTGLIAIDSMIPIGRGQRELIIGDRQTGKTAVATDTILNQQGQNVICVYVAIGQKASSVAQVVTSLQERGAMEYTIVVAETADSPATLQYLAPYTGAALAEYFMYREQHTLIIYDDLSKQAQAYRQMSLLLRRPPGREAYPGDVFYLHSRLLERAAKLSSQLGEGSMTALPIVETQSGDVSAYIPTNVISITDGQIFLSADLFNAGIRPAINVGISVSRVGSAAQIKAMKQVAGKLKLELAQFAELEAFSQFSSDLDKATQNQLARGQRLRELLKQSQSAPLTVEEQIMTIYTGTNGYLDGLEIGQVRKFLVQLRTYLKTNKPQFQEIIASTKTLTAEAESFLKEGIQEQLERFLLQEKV
# UniProt Q9FI56, residues 39-929: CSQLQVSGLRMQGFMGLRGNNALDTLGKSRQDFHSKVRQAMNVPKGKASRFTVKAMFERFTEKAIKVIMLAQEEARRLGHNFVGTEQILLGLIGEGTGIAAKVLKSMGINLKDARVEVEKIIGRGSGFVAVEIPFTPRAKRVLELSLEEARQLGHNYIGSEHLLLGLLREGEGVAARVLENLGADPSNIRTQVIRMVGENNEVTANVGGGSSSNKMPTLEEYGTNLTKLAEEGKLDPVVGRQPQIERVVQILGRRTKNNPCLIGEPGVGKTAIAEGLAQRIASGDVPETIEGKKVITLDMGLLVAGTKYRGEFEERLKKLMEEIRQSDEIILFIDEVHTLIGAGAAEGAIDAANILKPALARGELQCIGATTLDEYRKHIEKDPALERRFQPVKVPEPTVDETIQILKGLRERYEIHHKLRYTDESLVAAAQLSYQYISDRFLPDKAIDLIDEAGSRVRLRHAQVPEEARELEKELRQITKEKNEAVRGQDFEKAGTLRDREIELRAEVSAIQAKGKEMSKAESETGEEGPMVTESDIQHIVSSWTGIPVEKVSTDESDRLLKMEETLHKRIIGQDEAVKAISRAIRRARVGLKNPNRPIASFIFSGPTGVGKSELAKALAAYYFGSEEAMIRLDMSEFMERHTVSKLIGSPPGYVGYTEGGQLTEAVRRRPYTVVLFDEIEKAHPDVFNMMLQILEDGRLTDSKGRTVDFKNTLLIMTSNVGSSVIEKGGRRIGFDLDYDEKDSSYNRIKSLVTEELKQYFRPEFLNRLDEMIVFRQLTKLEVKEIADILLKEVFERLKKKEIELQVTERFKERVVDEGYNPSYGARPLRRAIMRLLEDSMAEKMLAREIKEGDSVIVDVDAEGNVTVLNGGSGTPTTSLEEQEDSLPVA
# UniProt P41376: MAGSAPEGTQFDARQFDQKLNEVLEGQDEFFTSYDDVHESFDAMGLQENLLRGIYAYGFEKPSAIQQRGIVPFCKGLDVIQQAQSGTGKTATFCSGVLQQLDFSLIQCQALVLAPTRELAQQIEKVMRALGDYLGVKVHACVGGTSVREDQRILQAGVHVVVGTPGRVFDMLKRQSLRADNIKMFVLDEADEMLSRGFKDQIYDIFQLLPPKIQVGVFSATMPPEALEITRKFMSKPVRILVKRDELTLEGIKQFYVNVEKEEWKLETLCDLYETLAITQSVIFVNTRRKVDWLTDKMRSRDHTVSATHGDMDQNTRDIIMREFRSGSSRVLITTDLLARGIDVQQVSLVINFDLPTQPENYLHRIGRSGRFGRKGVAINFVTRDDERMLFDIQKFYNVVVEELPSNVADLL
# UniProt P0DH99: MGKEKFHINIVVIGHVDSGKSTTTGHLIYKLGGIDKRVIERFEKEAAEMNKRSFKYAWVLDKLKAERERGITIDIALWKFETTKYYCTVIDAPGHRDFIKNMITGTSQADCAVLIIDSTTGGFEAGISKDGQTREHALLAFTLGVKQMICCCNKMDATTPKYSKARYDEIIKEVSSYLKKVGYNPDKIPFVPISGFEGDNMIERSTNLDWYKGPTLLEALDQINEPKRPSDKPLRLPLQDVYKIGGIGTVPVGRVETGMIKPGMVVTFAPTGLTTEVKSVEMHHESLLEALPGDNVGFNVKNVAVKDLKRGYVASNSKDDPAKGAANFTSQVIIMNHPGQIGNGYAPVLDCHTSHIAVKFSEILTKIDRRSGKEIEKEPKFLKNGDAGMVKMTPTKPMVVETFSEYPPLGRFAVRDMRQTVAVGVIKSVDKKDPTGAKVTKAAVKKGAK
# UniProt Q9ZR03, residues 51-229: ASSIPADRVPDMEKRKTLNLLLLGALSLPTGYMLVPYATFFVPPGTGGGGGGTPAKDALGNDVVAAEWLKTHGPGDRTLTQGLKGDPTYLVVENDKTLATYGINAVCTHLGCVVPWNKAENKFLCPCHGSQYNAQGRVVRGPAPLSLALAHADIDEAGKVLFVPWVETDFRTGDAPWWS
# UniProt Q9SY97, residues 40-273: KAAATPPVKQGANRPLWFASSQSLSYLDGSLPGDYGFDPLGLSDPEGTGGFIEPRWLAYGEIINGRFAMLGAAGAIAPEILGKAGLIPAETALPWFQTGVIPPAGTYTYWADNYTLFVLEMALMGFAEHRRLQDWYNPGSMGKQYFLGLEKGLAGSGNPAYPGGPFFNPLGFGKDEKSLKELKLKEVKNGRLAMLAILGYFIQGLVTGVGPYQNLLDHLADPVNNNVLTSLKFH
# UniProt Q9SHE8, residues 68-221: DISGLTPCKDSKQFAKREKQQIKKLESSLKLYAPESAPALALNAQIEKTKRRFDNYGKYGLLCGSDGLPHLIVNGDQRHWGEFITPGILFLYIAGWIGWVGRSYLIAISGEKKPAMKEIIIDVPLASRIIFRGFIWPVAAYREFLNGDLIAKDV
# T1: pAtPNP-A, N-terminally biotinylated AtPNP-A(33–66) peptide containing the active region of AtPNP-A (Arabidopsis thaliana) (UniProt Q9ZV52)
# T1 sequence (peptide, biotin on the N-terminus; two cysteine residues forming a disulfide bond): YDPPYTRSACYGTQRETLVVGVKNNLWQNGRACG
# Target: T1, pAtPNP-A, N-terminally biotinylated AtPNP-A(33–66) peptide containing the active region of AtPNP-A (Arabidopsis thaliana)
# Assay: affinity purification with mass spectrometry; N-terminally biotinylated peptide bait incubated 15 min with A. thaliana (Col-0) protein extract, no cross-linker, Dynabeads M-280 for 30 min (biotin-streptavidin), eluate on SDS-PAGE, in-gel trypsin digestion, LC-MS/MS; pScr as negative control; three independent experiments; only the target purified
row,binding,Molecule
1,binds,ADP/ATP carrier 1 (AAC1) (from UniProt P31167 71-381)
2,binds,Actin 7 (ACT7) (from UniProt P53492 1-377)
3,binds,Chaperonin 60 beta (LEN1) (from UniProt P21240 55-600)
4,binds,Photosystem I light harvesting complex gene 1 (LHCA1) (from UniProt Q01667 36-241)
5,binds,Photosystem I subunit G (PSAG) (from UniProt Q9S7N7 61-160)
6,binds,RAB GTPase homolog E1B (RABE1b) (from UniProt P17745 68-476)
7,binds,Tubulin/FtsZ family protein (TUA6) (from UniProt P29511 1-450)
8,binds,"Glyceraldehyde 3-phosphate dehydrogenase A subunit (GAPA) (enzyme, UniProt P25856 61-396) KLKVAINGFGRIGRNFLRCWHGRKDSPLDIIAINDTGGVKQASHLLKYDSTLGIFDADVKPSGETAISVDGKIIQVVSNRNPSLLPWKELGIDIVIEGTGVFVDREGAGKHIEAGAKKVIITAPGKGDIPTYVVGVNADAYSHDEPIISNASCTTNCLAPFVKVLDQKFGIIKGTMTTTHSYTGDQRLLDASHRDLRRARAAALNIVPTSTGAAKAVALVLPNLKGKLNGIALRVPTPNVSVVDLVVQVSKKTFAEEVNAAFRDSAEKELKGILDVCDEPLVSVDFRCSDFSTTIDSSLTMVMGDDMVKVIAWYDNEWGYSQRVVDLADIVANNWK"

# Further lines, the molecule ahead of its results:
row,Molecule,binding
1,ATP synthase subunit alpha (ATPA) (from UniProt P56757 1-507),binds
2,Actin 8 (ACT8) (from UniProt Q96293 1-377),binds
3,CLPC homologue 1 (CLPC1) (from UniProt Q9FI56 39-929),binds
4,Eukaryotic translation initiation factor 4A1 (EIF4A1) (from UniProt P41376 1-412),binds
5,GTP binding Elongation factor Tu family protein (from UniProt P0DH99 1-449),binds
6,Photosynthetic electron transfer C (PGR1) (from UniProt Q9ZR03 51-229),binds
7,Photosystem I light harvesting complex gene 3 (LHCA3) (from UniProt Q9SY97 40-273),binds
8,Photosystem I subunit F (PSAF) (from UniProt Q9SHE8 68-221),binds
9,Rieske (2Fe-2S) domain-containing protein (A. thaliana (endogenous in Col-0 plants)),binds
10,"Transketolase (enzyme, UniProt Q8RWV0 67-741) AAVETVEPTTDSSIVDKSVNSIRFLAIDAVEKAKSGHPGLPMGCAPMAHILYDEVMRYNPKNPYWFNRDRFVLSAGHGCMLLYALLHLAGYDSVQEEDLKQFRQWGSKTPGHPENFETPGIEVTTGPLGQGIANAVGLALAEKHLAARFNKPDAEVVDHYTYAILGDGCQMEGISNEACSLAGHWGLGKLIAFYDDNHISIDGDTEIAFTENVDQRFEALGWHVIWVKNGNTGYDEIRAAIKEAKTVTDKPTLIKVTTTIGYGSPNKANSYSVHGAALGEKEVEATRNNLGWPYEPFQVPDDVKSHWSRHTPEGATLESDWSAKFAAYEKKYPEEASELKSIITGELPAGWEKALPTYTPESPGDATRNLSQQCLNALAKVVPGFLGGSADLASSNMTLLKAFGDFQKATPEERNLRFGVREHGMGAICNGIALHSPGLIPYCATFFVFTDYMRGAMRISALSEAGVIYVMTHDSIGLGEDGPTHQPIEHIASFRAMPNTLMFRPADGNETAGAYKIAVTKRKTPSILALSRQKLPHLPGTSIEGVEKGGYTISDDSSGNKPDVILIGTGSELEIAAQAAEVLRKDGKTVRVVSFVCWELFDEQSDEYKESVLPSDVSARVSIEAASTFGWGKIVGGKGKSIGINSFGASAPAPLLYKEFGITVEAVVDAAKSFF",binds
11,"FtsH extracellular protease family (FTSH5) (enzyme, UniProt Q9FH02 77-704) VNEPVQPPAPTITAEAQSPNLSTFGQNVLMTAPNPQAQSSDLPDGTQWRYSEFLNAVKKGKVERVKFSKDGSVLQLTAVDNRRATVIVPNDPDLIDILAMNGVDISVSEGEGGNGLFDFIGNLLFPLLAFGGLFYLFRGGQGGAGGPGGLGGPMDFGRSKSKFQEVPETGVTFGDVAGADQAKLELQEVVDFLKNPDKYTALGAKIPKGCLLVGPPGTGKTLLARAVAGEAGVPFFSCAASEFVELFVGVGASRVRDLFEKAKSKAPCIVFIDEIDAVGRQRGAGMGGGNDEREQTINQLLTEMDGFSGNSGVIVLAATNRPDVLDSALLRPGRFDRQVTVDRPDVAGRVQILKVHSRGKAIGKDVDYEKVARRTPGFTGADLQNLMNEAAILAARRELKEISKDEISDALERIIAGPEKKNAVVSEEKKRLVAYHEAGHALVGALMPEYDPVAKISIIPRGQAGGLTFFAPSEERLESGLYSRSYLENQMAVALGGRVAEEVIFGDENVTTGASNDFMQVSRVARQMVERFGFSKKIGQVAVGGAGGNPFLGQSMSSQKDYSMATADVVDAEVRELVEKAYVRAKEIITTQIDILHKLAQLLIEKETVDGEEFMSLFIDGQAELYVS",binds
12,"Glutathione S-transferase phi 8 (GST6) (enzyme, UniProt Q96266 50-263) ASIKVHGVPMSTATMRVLATLYEKDLQFELIPVDMRAGAHKQEAHLALNPFGQIPALEDGDLTLFESRAITQYLAEEYSEKGEKLISQDCKKVKATTNVWLQVEGQQFDPNASKLAFERVFKGMFGMTTDPAAVQELEGKLQKVLDVYEARLAKSEFLAGDSFTLADLHHLPAIHYLLGTDSKVLFDSRPKVSEWIKKISARPAWAKVIDLQKQ",binds
13,"Plastid transcriptionally active 16 (PTAC16) (protein, UniProt Q9STF2 20-510) FNRRKPRLTVWAKQTAFQLGKTKGDDDSEGKQKGKNPFQFDFGKLPDMKSLIPVVTNPSTGLVFGNNRKKDPGTIFVAGATGQAGIRIAQTLLQRGFSVRAGVPDLGAAQDLARVAATYKILSNDEVKRLNAVQSPFQDAESIAKAIGNATKVVVTVGATENGPDAQVSTSDALLVVQAAELAGVSHVAIVYDGTISGSTYNVLDGITSFFGNLFAKSQPLTISDLIEKVAQTDVAYTLIKTSLTEDFSPEKAYNVVVSAEGSNSGSGSSSSEAYKVPKLKIASLVADIFANTAVAENKVVEVSTDPSAPSRPVDELFSVIPEDGRRKVYADAIARERAEEEAKVAADKAREAAEAAKEFEKQMQKLSEKEAEAASLAEDAQQKADAVGVTVDGLFNKAKDISSGLSWNKLGSQFATAIQNASETPKVQVATVRGQAKARNLPPKKAVVKQRPSSPFASKPKEERPKKPEKEVRKVFGGLFKQETIYIDDD",binds
14,"Protochlorophyllide oxidoreductase B (PORB) (enzyme, UniProt P21218 67-401) QTAATSSPTVTKSVDGKKTLRKGNVVVTGASSGLGLATAKALAETGKWNVIMACRDFLKAERAAKSVGMPKDSYTVMHLDLASLDSVRQFVDNFRRTETPLDVLVCNAAVYFPTAKEPTYSAEGFELSVATNHLGHFLLARLLLDDLKKSDYPSKRLIIVGSITGNTNTLAGNVPPKANLGDLRGLAGGLNGLNSSAMIDGGDFDGAKAYKDSKVCNMLTMQEFHRRFHEETGVTFASLYPGCIASTGLFREHIPLFRALFPPFQKYITKGYVSETESGKRLAQVVSDPSLTKSGVYWSWNNASASFENQLSEEASDVEKARKVWEISEKLVGLA",binds
15,"Carbonic anhydrase 2 (CA2) (enzyme, UniProt P42737 72-331) RMGNESYEDAIEALKKLLIEKDDLKDVAAAKVKKITAELQAASSSDSKSFDPVERIKEGFVTFKKEKYETNPALYGELAKGQSPKYMVFACSDSRVCPSHVLDFHPGDAFVVRNIANMVPPFDKVKYAGVGAAIEYAVLHLKVENIVVIGHSACGGIKGLMSFPLDGNNSTDFIEDWVKICLPAKSKVLAESESSAFEDQCGRCEREAVNVSLANLLTYPFVREGVVKGTLALKGGYYDFVNGSFELWELQFGISPVHSI",binds
16,"Cobalamin-independent synthase family protein (ATMS1) (enzyme, UniProt O50008 1-765) MASHIVGYPRMGPKRELKFALESFWDGKSTAEDLQKVSADLRSSIWKQMSAAGTKFIPSNTFAHYDQVLDTTAMLGAVPPRYGYTGGEIGLDVYFSMARGNASVPAMEMTKWFDTNYHYIVPELGPEVNFSYASHKAVNEYKEAKALGVDTVPVLVGPVSYLLLSKAAKGVDKSFELLSLLPKILPIYKEVITELKAAGATWIQLDEPVLVMDLEGQKLQAFTGAYAELESTLSGLNVLVETYFADIPAEAYKTLTSLKGVTAFGFDLVRGTKTLDLVKAGFPEGKYLFAGVVDGRNIWANDFAASLSTLQALEGIVGKDKLVVSTSCSLLHTAVDLINETKLDDEIKSWLAFAAQKVVEVNALAKALAGQKDEALFSANAAALASRRSSPRVTNEGVQKAAAALKGSDHRRATNVSARLDAQQKKLNLPILPTTTIGSFPQTVELRRVRREYKAKKVSEEDYVKAIKEEIKKVVDLQEELDIDVLVHGEPERNDMVEYFGEQLSGFAFTANGWVQSYGSRCVKPPVIYGDVSRPKAMTVFWSAMAQSMTSRPMKGMLTGPVTILNWSFVRNDQPRHETCYQIALAIKDEVEDLEKGGIGVIQIDEAALREGLPLRKSEHAFYLDWAVHSFRITNCGVQDSTQIHTHMCYSHFNDIIHSIIDMDADVITIENSRSDEKLLSVFREGVKYGAGIGPGVYDIHSPRIPSSEEIADRVNKMLAVLEQNILWVNPDCGLKTRKYTEVKPALKNMVDAAKLIRSQLASAK",binds
17,"Phosphoglycerate kinase 1 (PGK1) (enzyme, UniProt Q9LD57 76-481) SMAKKSVGDLTSADLKGKKVFVRADLNVPLDDNQTITDDTRIRAAIPTIKYLIENGAKVILSTHLGRPKGVTPKFSLAPLVPRLSELLGIEVTKADDCIGPEVESLVASLPEGGVLLLENVRFYKEEEKNDPEFAKKLASLADLYVNDAFGTAHRAHASTEGVTKFLKPSVAGFLLQKELDYLVGAVSNPKRPFAAIVGGSKVSSKIGVIESLLEKCDILLLGGGMIFTFYKAQGLSVGSSLVEEDKLELATELLAKAKAKGVSLLLPTDVVVADKFAPDANSKIVPASGIEDGWMGLDIGPDSIKTFNEALDTTQTVIWNGPMGVFEMEKFAAGTEAIANKLAELSEKGVTTIIGGGDSVAAVEKVGVAGVMSHISTGGGASLELLEGKVLPGVIALDEAIPVTV",binds
18,"Mitochondrial substrate carrier family protein (protein, UniProt Q9C5M0 1-298) MAEEKKAPISVWTTVKPFVNGGASGMLATCVIQPIDMIKVRIQLGQGSAASITTNMLKNEGVGAFYKGLSAGLLRQATYTTARLGSFKLLTAKAIESNDGKPLPLYQKALCGLTAGAIGACVGSPADLALIRMQADNTLPLAQRRNYTNAFHALTRISADEGVLALWKGCGPTVVRAMALNMGMLASYDQSAEYMRDNLGFGEMSTVVGASAVSGFCAAACSLPFDFVKTQIQKMQPDAQGKYPYTGSLDCAMKTLKEGGPLKFYSGFPVYCVRIAPHVMMTWIFLNQITKFQKKIGM",binds

# — article PMC7823470, “Arabidopsis Plant Natriuretic Peptide Is a Novel Interactor of Rubisco Activase” (Life, 2020)
